Measured values published in PubChem BioAssay AID493014 (National Center for Advancing Translational Sciences (NCATS), 2011).
“And” between values parts separate entries of the source, which are not always exact repeats. Equal entries are not always repeated. The list shows a part of the results. Further columns of the screen follow, without active or inactive calls. The list favours compounds with an active or inconclusive main result. Words in brackets tell the shape of the fitted curve; partial curves, single points and poor fits give uncertain potencies.

Test: qHTS Assay to Find Inhibitors of Chronic Active B-Cell Receptor Signaling
Conditions: ABC-DLBCL IkBa-CBG/CBR reporter, luminescence ratio (green luciferase fused to IkBa over red control in TMD8 lymphoma cells), 4 h
Summary of the method: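 Cell line TMD8 (human ABC DLBCL), stably expressing tet-inducible CBG68-IkBa fusion and CBR; IMDM/0.5% FBS; cpd up to 46 uM; dox induction, 4 h, 37C/5% CO2; dual luminescence; green/red ratio; MG132 control.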

[1] = measured here: CBR red luminescence, cell number
[2] = measured here: IkBa-CBG green luminescence

| Structure (SMILES) | AC50 [1] | AC50 [2] |
| --- | --- | --- |
| CS(=O)(=O)c1ccccc1-c1nc(-c2cccc(Cl)c2)no1 | 10 µM [rising, partial curve, poor fit] |  |
| O=C(Nc1ccc(-c2noc(CCc3ccccc3)n2)cc1)c1cccnc1 | 6.51 µM [rising, single point] |  |
| CN(C(=O)COC(=O)c1cccc(S(=O)(=O)N2CCCCCC2)c1)C1CCS(=O)(=O)C1 (stereo unspecified) | 29.1 µM [rising, single point] | 14.6 µM [falling, partial curve, poor fit] |
| COc1ccc(/C=C(/C#N)C(=O)Nc2cccnc2)cc1OC | 29.1 µM [rising, single point] |  |
| COc1ccc(/C=N/N2C(=N)SCC2=O)cc1 | 6.31 µM [rising, single point] |  |
| COC(=O)[C@@]1(Cc2ccccc2)[C@@H]2C(=CC(=O)[C@H]2CC(=O)C(=O)N(C)C)CN1C(=O)c1ccccc1 | 8.2 µM [falling, partial curve] |  |
| CC1=CC(C)(C)n2c(O)c(N=NC(N)=S)c3c(C)c(C)cc1c32 | 22.4 µM [falling, partial curve, poor fit] |  |
| Cc1cc(C)c2c(=O)n(CC(=O)N3CCC(N4CCCCC4)CC3)sc2n1 | 18.4 µM [falling, single point] |  |
| O=C1Nc2ccccc2/C1=C/c1ccccc1F | 14.1 µM [falling, single point] |  |
| COc1cccc(NC(=O)c2cccc(N3C(=O)C4CCC(C)CC4C3=O)c2)c1 (stereo unspecified) | 20 µM [falling, partial curve, poor fit] |  |
| O=C(CCCC(=O)Nc1cccnc1)Nc1cccnc1 | 0.00517 µM [falling, full curve, poor fit] |  |
| Cc1cc(C)cc(NC(=O)[C@H](NC(=O)[C@@H]2Cc3ccccc3CN2)c2ccccc2)c1 | 15.8 µM [falling, single point] |  |
| COc1ccc(/C=C/C(=O)NC(C)C)cc1Br | 2.59 µM [rising, partial curve, poor fit] |  |
| Cc1cccc(-c2nc(C#N)c(N3CCCCC3)o2)c1 | 7.08 µM [rising, partial curve] |  |
| CCOC(=O)c1cnc2c(C)cccc2c1NCCc1ccc(OC)c(OC)c1 | 29.1 µM [falling, single point] and 1.12 µM [falling, full curve, poor fit] |  |
| Cc1cc(C)nc(NC2=NC3CCCCC3N2)n1 (stereo unspecified) | 25.9 µM [falling, single point] |  |
| CCN(c1ncnc2c1cnn2-c1cc(Cl)ccc1C)C1CCCCC1 | 0.398 µM [rising, full curve, poor fit] |  |
| O=C1CC(c2ccccc2)CC(O)=C1C=Nc1ccccc1O (stereo unspecified) | 0.562 µM [falling, full curve, poor fit] |  |
| Cc1cc(NC2C3CC4CC(C3)CC2C4)n2nnnc2n1 (stereo unspecified) | 12.6 µM [rising, single point] |  |
| CC(C)CN(C(=O)C(C)N1C(=O)c2ccccc2C1=O)c1c(N)n(Cc2ccccc2)c(=O)[nH]c1=O (stereo unspecified) | 20.6 µM [falling, partial curve] |  |
| COCCCN(C(=S)NC(=O)C(C)(C)C)c1c(N)n(Cc2ccccc2)c(=O)[nH]c1=O | 2.82 µM [rising, partial curve] |  |
| COc1ccc(C)cc1C(=O)C1CC(C(=O)O)C(C)(C)C1C (stereo unspecified) | 25.1 µM [rising, partial curve, poor fit] |  |

Two successive compounds out of the list so far, quoted:

| Structure (SMILES) | AC50 [1] | AC50 [2] |
| --- | --- | --- |
| Cc1cc(C)cc(NC(=O)[C@H](NC(=O)[C@@H]2Cc3ccccc3CN2)c2ccccc2)c1 | 15.8 µM [falling, single point] |  |
| COc1ccc(/C=C/C(=O)NC(C)C)cc1Br | 2.59 µM [rising, partial curve, poor fit] |  |

Additional structures:

| Structure (SMILES) | AC50 [1] | AC50 [2] |
| --- | --- | --- |
| COc1cc(C(=O)NCCc2c[nH]c3ccccc23)ccc1OCc1c(C)noc1C | 12.6 µM [falling, partial curve, poor fit] |  |
| Cc1ccc(C(=O)/C=C/Nc2ccccc2C(N)=O)cc1 | 11.2 µM [falling, partial curve] |  |
| O=C(O)c1ccc(-n2cc(-c3cc4ccccc4oc3=O)[nH]c2=S)cc1 | 0.355 µM [falling, full curve] |  |
| CC(C)N(C(=O)COC(=O)[C@H](C)NC(=O)c1ccco1)c1ccccc1 | 2.82 µM [falling, partial curve] |  |
| CC1(C)CCSC(/C=C/c2ccccc2)=N1 | 12.6 µM [falling, partial curve] |  |
| COc1ccccc1C(=O)OCCCN=C1NS(=O)(=O)c2ccccc21 | 2 µM [rising, partial curve, poor fit] |  |
| CCN(C(=O)c1ccc(NC(C)=O)cc1)c1ccccc1C |  | 8.2 µM [rising, partial curve, poor fit] |
| O=C(Nc1ccc2c(c1)OCO2)c1cc(Cl)ccn1 | 0.116 µM [rising, full curve, poor fit] |  |
| Cc1ccc(O)c(NC(=O)c2noc3c2CCCCC3)c1 | 0.398 µM [rising, full curve, poor fit] |  |
| Cc1c(C(=O)O)cccc1-n1c(C)cc(/C=C(/C#N)C(=O)NCc2ccccc2)c1C | 35.5 µM [falling, single point] |  |
| Cc1cc(N)ccc1N1CCCC1 | 6.31 µM [falling, single point] |  |
| COc1ccc(NC(=O)CN2C(=O)NC(C)(c3ccc4c(c3)OCCO4)C2=O)cc1S(N)(=O)=O (stereo unspecified) | 29.1 µM [rising, single point] |  |
| COc1cccc2c1nc(C)c1cc(C)oc12 | 29.1 µM [rising, single point] |  |
| Cc1ccccc1NC(=O)CSc1nc(N)c(C#N)c(-c2cccs2)c1C#N | 0.231 µM [falling, partial curve, poor fit] |  |
| Cc1[nH]n(-c2ccccc2)c(=O)c1/C=N/n1c(C)nc2ccccc2c1=O | 35.5 µM [falling, partial curve, poor fit] |  |
| CC(C)n1cc(/C=N/Nc2ccc(Cl)c(C(=O)O)c2)c2ccccc21 | 7.94 µM [falling, partial curve] |  |
| COc1ccc(C(=O)COC(=O)[C@H](C)Nc2ccc(C(F)(F)F)cc2[N+](=O)[O-])cc1 | 10.3 µM [rising, partial curve, poor fit] |  |
| Cc1c(CCOC(=O)c2cc([N+](=O)[O-])cc([N+](=O)[O-])c2)sc[n+]1CCCCS(=O)(=O)[O-] | 3.98 µM [rising, full curve, poor fit] |  |
| CCOC(=O)c1cc(CNC(=O)c2c(C)oc3c2CCCC3)c(C)o1 | 35.5 µM [falling, single point] |  |
| Cc1ccc(CNC(=O)C(=O)c2cn(CC(=O)N3CCOCC3)c3ccccc23)cc1 | 1.41 µM [falling, full curve, poor fit] |  |
| O=C(Nc1ccccc1)c1ccc(-n2cnnn2)cc1 | 12.6 µM [falling, partial curve, poor fit] |  |
| Cc1[nH]c2ccccc2c1C(=O)COC(=O)c1ccccc1O | 6.51 µM [rising, single point] |  |

| Structure (SMILES) | AC50 [1] | AC50 [2] |
| --- | --- | --- |
| COCCN1CN(S(=O)(=O)c2cccc(Cl)c2)c2nc3ccccc3nc21 | 2.82 µM [falling, full curve] |  |
| O=C(NNC(=O)c1ccc2ncccc2c1)c1ccc(Cl)cc1 | 35.5 µM [falling, single point] |  |
| FC(F)(F)c1cc(-c2ccco2)nc(NCCc2ccccc2)n1 | 2.51 µM [rising, single point] |  |
| C#CCOc1ccccc1C(N)=O | 6.31 µM [falling, partial curve, poor fit] |  |
| c1ccc2cc(OCc3nc4ccccc4[nH]3)ccc2c1 | 2.59 µM [falling, full curve] |  |
| O=C(c1ccco1)N1CCN(c2c(-c3ccccc3)c3cc(Cl)ccc3[nH]c2=O)CC1 | 18.4 µM [falling, single point] |  |
| Cc1c(Cl)cccc1NC(=O)CCCN1C(=O)CCC1=O | 29.1 µM [rising, single point] |  |
| C=C(C)c1cccc(C(C)(C)NC(=O)Nc2ccc(C)cn2)c1 | 32.6 µM [falling, single point] |  |
| C/C(=N\NC(=S)NCCc1ccccc1)c1cccs1 | 2.06 µM [rising, full curve, poor fit] |  |
| O=C(Oc1cc(=O)oc2ccccc12)c1ccco1 | 1.12 µM [falling, full curve, poor fit] |  |
| CC(C)Cc1nnc(NC(=O)CN2C(=O)C3CCCCC3C2=O)s1 (stereo unspecified) | 32.6 µM [rising, single point] |  |
| COc1cccc(-c2cc(C(=O)NCc3ccco3)no2)c1 | 14.6 µM [falling, partial curve, poor fit] |  |
| O=C(CCCN1CCOCC1)c1ccc2c(c1)OCCO2 | 1.41 µM [rising, partial curve, poor fit] |  |
| Cc1ccc(C2C3=C(CC(C)(C)CC3=O)Nc3onc(C)c32)cc1 (stereo unspecified) | 32.6 µM [falling, single point] |  |
| Cc1cc(NC(=O)CSc2ccccn2)cc(NC(=O)CSc2ccccn2)c1 | 25.1 µM [rising, single point] |  |
| COCCSc1ccccc1C(=O)NCc1cccnc1 | 6.31 µM [falling, single point] |  |
| CCOC(=O)c1ccc(Oc2nc(NC)nc(SC)n2)cc1 | 6.51 µM [rising, single point] |  |
| C=CC[n+]1c(/C=C/c2ccc(OC(C)=O)c(OC)c2)ccc2ccccc21 | 28.2 µM [falling, single point] |  |
| COc1ccc(C(=O)Nc2ccc(NC(=O)c3cccc(OC)c3)cn2)cc1 | 22.4 µM [rising, single point] |  |
| O=[N+]([O-])c1cc(C(F)(F)F)cc([N+](=O)[O-])c1Sc1n[nH]c(C(F)(F)F)n1 | 22.4 µM [falling, partial curve, poor fit] | 7.08 µM [rising, full curve, poor fit] |

In another format: entries from further up
Structure (SMILES),AC50 [1],AC50 [2]
FC(F)(F)c1cc(-c2ccco2)nc(NCCc2ccccc2)n1,"2.51 µM [rising, single point]",
C#CCOc1ccccc1C(N)=O,"6.31 µM [falling, partial curve, poor fit]",
c1ccc2cc(OCc3nc4ccccc4[nH]3)ccc2c1,"2.59 µM [falling, full curve]",
O=C(c1ccco1)N1CCN(c2c(-c3ccccc3)c3cc(Cl)ccc3[nH]c2=O)CC1,"18.4 µM [falling, single point]",
Cc1c(Cl)cccc1NC(=O)CCCN1C(=O)CCC1=O,"29.1 µM [rising, single point]",
C=C(C)c1cccc(C(C)(C)NC(=O)Nc2ccc(C)cn2)c1,"32.6 µM [falling, single point]",
C/C(=N\NC(=S)NCCc1ccccc1)c1cccs1,"2.06 µM [rising, full curve, poor fit]",
O=C(Oc1cc(=O)oc2ccccc12)c1ccco1,"1.12 µM [falling, full curve, poor fit]",
CC(C)Cc1nnc(NC(=O)CN2C(=O)C3CCCCC3C2=O)s1 (stereo unspecified),"32.6 µM [rising, single point]",
COc1cccc(-c2cc(C(=O)NCc3ccco3)no2)c1,"14.6 µM [falling, partial curve, poor fit]",
O=C(CCCN1CCOCC1)c1ccc2c(c1)OCCO2,"1.41 µM [rising, partial curve, poor fit]",
Cc1ccc(C2C3=C(CC(C)(C)CC3=O)Nc3onc(C)c32)cc1 (stereo unspecified),"32.6 µM [falling, single point]",
Cc1cc(NC(=O)CSc2ccccn2)cc(NC(=O)CSc2ccccn2)c1,"25.1 µM [rising, single point]",
COCCSc1ccccc1C(=O)NCc1cccnc1,"6.31 µM [falling, single point]",
CCOC(=O)c1ccc(Oc2nc(NC)nc(SC)n2)cc1,"6.51 µM [rising, single point]",
C=CC[n+]1c(/C=C/c2ccc(OC(C)=O)c(OC)c2)ccc2ccccc21,"28.2 µM [falling, single point]",
